The match of structure and compound is tentative.
Target: human SST2R (Homo sapiens, UniProt P30874)
Assay: Competition binding against [125I-Tyr25]LTT-SS28 in HEK293-SST2R cell membranes
Conditions: displacement of [125I-Tyr25]LTT-SS28, HEK293-SST2R cell membranes, 1 h 22 °C; mean ± sd
Protocol: Samples in triplicate for each concentration point were incubated for 1 h at 22 °C in an Incubator-Orbital Shaker unit, (MPM Instr. SrI). Competition was abruptly stopped by the addition of ice-cold washing buffer and fast filtration through glass fiber filters (Whatman GF/B, pre-soaked for 2 h in a 1% polyethyleneimine (PEI) aqueous solution). This operation was contacted semi-automatically on a Brandel Cell Harvester (Adi Hassel Ingenieur Büro, Munich, Germany). They were subsequently rinsed with ice-cold washing buffer (10 mM HEPES pH 7.4, 150 mM NaCl). Filters were collected in plastic tubes and their radioactivity content was measured in an automated multi-sample well-type γ-counter (NaI(Tl) 3'' crystal-equipped Canberra Packard Cobra^TM Quantum U5003/1, Auto-Gamma® instrument). Nonlinear regression for a one-site model was applied to determine the half-maximal inhibitory concentration (IC50) values using the PRISM^TM 6.0 GraphPad software (San Diego, CA, USA). Results from three independent experiments in triplicate were calculated and presented as mean IC50 ± standard deviation (sd) values.

Protein sequences, listed by entry. Tags and fused reporters are not part of them.
UniProt P30874, whole entry: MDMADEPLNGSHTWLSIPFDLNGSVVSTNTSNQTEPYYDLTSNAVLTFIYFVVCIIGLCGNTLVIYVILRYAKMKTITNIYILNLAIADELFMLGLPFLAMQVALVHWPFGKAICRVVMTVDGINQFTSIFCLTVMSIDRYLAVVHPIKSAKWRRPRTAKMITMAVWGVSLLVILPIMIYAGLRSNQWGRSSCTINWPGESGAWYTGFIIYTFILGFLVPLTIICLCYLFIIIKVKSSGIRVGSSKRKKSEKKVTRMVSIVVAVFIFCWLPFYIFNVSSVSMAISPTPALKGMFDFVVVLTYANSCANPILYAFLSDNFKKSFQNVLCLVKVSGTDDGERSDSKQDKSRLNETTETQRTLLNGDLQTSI

`C[C@@H](O)[C@@H]1NC(=O)[C@H](CCCCN)NC(=O)[C@@H](Cc2ccc(NC(N)=O)cc2)NC(=O)[C@H](Cc2ccncc2)NC(=O)[C@H](NC(=O)[C@H](Cc2ccc(Cl)cc2)NC(=O)CCCCC2(N(CC(=O)O)CC(=O)O)CN(CC(=O)O)CCN(CC(=O)O)C2)CSSC[C@@H](C(=O)N[C@H](Cc2ccc(O)cc2)C(N)=O)NC1=O` showed an IC50 of 1.69 nM.

Source: article PMC10053881 (Pharmaceutics, 2023)
